This passage reports log2 fold change results from the supplement of paper PMC12819154, “High-throughput peptide-centric local stability assay extends protein–ligand identification to membrane proteins, tissues and bacteria” (Nature Structural & Molecular Biology, 2025).

By UniProt entry, the sequences of proteins in these tests, tags left out. Where a name states a change or a piece, a line headed by the entry shows the natural chain unless it says otherwise.
UniProt Q8IY22: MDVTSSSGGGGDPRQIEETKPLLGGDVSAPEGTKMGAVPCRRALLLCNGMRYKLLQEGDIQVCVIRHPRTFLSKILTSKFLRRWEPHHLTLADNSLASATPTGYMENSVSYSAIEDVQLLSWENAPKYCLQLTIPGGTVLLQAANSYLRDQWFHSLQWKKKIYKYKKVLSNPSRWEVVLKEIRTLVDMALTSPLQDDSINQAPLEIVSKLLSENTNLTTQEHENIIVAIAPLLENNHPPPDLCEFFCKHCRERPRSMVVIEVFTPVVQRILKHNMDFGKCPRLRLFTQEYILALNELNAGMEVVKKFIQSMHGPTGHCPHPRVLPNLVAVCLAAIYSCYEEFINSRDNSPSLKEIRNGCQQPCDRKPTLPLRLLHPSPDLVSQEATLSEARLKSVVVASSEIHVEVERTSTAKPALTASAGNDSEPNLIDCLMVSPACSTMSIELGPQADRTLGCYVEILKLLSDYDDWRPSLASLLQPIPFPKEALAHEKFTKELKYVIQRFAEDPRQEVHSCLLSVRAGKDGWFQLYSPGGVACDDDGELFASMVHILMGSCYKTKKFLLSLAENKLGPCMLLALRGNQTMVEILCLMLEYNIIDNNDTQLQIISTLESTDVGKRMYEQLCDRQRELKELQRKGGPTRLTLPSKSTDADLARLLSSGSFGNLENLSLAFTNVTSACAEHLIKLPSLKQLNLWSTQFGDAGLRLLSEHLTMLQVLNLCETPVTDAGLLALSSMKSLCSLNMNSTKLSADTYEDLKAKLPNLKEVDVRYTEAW
UniProt Q8IVV7: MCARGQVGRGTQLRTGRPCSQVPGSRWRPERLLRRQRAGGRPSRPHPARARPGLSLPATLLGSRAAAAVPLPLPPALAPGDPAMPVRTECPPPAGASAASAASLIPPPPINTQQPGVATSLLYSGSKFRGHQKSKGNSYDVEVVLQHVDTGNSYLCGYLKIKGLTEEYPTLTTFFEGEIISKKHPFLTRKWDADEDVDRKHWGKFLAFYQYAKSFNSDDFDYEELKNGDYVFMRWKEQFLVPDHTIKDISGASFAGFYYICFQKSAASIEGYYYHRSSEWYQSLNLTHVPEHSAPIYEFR
UniProt Q86UW6: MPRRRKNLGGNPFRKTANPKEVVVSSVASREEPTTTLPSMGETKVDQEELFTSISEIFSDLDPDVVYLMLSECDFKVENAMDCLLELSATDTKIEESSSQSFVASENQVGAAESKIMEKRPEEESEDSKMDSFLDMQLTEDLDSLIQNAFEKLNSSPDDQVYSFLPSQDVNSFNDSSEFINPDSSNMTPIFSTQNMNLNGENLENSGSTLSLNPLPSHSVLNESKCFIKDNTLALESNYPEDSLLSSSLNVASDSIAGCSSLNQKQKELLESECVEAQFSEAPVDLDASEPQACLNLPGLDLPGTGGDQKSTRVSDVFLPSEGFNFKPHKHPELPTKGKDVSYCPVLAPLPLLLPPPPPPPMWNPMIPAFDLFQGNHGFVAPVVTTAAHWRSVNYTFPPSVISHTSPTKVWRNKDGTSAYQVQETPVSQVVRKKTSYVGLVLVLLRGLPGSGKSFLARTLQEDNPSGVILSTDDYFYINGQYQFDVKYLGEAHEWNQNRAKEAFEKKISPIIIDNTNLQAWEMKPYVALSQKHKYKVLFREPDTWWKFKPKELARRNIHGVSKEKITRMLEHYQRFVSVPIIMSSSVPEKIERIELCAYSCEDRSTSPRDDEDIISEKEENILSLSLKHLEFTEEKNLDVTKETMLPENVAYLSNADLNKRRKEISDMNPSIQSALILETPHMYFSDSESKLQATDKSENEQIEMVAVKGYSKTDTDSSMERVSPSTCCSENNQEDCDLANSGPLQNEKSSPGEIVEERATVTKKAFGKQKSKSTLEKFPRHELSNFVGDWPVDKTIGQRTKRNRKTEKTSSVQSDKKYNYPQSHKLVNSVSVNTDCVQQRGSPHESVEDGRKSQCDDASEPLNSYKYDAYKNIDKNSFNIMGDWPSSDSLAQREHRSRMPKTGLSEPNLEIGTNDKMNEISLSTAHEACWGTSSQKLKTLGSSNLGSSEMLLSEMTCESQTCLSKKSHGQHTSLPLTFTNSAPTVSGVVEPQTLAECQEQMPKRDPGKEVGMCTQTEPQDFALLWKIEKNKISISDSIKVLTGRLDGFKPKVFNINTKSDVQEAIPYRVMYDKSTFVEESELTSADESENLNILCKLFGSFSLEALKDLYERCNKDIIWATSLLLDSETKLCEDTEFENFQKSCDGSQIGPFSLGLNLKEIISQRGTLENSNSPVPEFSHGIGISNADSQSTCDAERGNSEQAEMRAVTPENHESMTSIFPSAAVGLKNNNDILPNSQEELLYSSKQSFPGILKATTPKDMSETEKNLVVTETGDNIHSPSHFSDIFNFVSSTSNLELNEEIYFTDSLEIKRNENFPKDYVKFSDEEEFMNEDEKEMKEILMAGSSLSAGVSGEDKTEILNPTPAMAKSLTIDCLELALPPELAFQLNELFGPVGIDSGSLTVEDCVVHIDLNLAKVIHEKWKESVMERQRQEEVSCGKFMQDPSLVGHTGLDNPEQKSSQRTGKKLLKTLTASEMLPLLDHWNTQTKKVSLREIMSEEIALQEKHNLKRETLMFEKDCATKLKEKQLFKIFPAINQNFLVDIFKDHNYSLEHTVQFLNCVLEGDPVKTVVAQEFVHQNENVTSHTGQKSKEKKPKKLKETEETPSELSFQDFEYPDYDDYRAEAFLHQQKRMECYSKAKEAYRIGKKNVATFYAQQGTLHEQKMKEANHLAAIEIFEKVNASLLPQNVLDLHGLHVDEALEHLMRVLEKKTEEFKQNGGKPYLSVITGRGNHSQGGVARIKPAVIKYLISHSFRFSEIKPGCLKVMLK
UniProt Q86XI2: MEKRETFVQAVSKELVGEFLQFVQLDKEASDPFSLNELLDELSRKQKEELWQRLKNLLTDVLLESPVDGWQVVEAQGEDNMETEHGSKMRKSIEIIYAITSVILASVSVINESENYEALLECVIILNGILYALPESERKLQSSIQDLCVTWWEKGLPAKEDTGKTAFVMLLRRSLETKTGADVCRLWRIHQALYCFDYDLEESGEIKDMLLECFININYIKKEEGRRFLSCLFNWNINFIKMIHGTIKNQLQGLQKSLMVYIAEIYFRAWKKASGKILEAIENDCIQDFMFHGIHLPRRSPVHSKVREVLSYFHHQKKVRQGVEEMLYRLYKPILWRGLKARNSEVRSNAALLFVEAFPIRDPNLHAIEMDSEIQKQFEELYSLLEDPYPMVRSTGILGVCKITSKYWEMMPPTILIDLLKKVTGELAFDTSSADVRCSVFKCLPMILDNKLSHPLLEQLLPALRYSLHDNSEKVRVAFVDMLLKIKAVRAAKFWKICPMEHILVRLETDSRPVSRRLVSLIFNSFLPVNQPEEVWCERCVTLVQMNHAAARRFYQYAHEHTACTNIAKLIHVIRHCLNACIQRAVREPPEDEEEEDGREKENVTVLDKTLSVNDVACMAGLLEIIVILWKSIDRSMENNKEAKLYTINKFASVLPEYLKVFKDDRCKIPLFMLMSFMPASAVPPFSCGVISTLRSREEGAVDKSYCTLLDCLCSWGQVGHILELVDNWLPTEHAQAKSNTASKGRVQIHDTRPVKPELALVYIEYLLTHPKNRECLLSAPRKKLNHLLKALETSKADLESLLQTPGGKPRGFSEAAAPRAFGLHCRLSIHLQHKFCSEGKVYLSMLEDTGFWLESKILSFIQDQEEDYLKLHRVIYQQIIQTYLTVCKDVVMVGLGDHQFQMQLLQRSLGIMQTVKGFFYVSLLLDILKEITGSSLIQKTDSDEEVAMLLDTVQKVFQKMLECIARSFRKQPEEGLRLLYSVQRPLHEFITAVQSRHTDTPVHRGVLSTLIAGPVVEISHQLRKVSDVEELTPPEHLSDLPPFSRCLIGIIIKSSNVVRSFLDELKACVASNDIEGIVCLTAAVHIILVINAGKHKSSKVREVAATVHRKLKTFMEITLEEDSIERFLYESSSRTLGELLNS
UniProt Q8IWE2: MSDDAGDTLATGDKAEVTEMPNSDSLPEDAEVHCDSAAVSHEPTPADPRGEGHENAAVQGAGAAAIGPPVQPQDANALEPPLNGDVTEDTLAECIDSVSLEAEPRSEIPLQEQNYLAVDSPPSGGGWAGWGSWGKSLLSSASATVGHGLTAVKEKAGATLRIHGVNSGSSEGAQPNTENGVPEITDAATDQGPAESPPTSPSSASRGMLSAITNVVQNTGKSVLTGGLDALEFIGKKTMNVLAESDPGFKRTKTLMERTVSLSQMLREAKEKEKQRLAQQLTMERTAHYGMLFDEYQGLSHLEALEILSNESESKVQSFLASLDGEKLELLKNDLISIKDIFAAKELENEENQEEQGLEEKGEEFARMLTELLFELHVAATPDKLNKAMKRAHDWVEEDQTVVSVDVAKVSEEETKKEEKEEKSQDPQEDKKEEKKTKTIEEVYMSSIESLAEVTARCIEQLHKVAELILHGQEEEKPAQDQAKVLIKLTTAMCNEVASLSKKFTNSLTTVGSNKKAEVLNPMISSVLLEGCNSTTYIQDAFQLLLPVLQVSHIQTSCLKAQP
UniProt Q86WJ1: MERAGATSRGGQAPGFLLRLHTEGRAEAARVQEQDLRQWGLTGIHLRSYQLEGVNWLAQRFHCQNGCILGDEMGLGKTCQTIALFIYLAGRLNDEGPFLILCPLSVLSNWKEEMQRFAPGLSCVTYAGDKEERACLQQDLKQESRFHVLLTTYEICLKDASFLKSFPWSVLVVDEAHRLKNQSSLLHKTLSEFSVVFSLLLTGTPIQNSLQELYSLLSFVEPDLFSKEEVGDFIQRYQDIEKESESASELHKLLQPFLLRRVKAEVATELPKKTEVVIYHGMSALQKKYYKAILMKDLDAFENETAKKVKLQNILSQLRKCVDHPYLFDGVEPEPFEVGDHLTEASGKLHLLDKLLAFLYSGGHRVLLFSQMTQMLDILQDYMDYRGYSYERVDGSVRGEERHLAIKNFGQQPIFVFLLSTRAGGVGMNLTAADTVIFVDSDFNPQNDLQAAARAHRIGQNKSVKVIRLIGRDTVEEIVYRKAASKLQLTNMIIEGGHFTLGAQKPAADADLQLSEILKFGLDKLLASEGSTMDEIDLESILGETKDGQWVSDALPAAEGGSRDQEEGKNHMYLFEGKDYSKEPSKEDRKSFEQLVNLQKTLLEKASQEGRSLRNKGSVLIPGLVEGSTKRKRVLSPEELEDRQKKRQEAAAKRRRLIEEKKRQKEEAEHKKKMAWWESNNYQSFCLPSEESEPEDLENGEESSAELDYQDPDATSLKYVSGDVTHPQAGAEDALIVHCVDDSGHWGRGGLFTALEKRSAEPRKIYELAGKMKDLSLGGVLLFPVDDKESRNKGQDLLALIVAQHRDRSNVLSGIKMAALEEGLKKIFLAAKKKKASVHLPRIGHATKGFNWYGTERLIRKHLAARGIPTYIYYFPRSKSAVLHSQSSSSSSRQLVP
UniProt Q8IU81: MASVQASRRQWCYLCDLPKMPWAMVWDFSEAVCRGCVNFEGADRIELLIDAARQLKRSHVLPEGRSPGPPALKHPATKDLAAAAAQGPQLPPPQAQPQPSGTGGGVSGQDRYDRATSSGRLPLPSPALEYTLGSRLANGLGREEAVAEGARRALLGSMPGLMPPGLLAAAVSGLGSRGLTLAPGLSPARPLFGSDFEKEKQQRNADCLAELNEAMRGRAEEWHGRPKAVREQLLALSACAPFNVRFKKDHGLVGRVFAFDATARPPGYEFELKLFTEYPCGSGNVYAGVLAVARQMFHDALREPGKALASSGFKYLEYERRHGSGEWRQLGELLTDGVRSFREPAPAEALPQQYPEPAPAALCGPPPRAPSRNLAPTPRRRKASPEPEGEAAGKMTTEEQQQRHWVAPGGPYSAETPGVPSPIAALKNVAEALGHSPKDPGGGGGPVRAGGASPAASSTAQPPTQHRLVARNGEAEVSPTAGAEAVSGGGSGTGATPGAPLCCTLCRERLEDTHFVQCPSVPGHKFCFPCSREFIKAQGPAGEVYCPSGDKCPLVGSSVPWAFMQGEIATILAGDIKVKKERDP

The other results are listed elsewhere or left out. Most values lie at the level of the controls, where differences are scatter.

Compound in the test: Cc1nc(Nc2ncc(C(=O)Nc3c(C)cccc3Cl)s2)cc(N2CCN(CCO)CC2)n1 [dasatinib]
Nature of the test: log2 fold change of tryptic peptide abundance, ligand vs vehicle (limited proteolysis) (log2 ratio); higher = more trypsin-susceptible (destabilized). To be noted: ligand concentration: 5 uM; sample: K562 cleared lysate.
Turning to “CMIP (peptide sequence: SVVVASSEIHVEVER, peptide start residue: 394) (UniProt Q8IY22)”, the log2 fold change was -0.633.
With “GID4 (peptide sequence: TGRPCSQVPGSR, peptide start residue: 15) (UniProt Q8IVV7)”, the log2 fold change is 0.208.
In the case of “N4BP2 (peptide sequence: HELSNFVGDWPVDK, peptide start residue: 782) (UniProt Q86UW6)”, the log2 fold change was found to be 0.32.
“NCAPG2 (peptide sequence: CLPMILDNK, peptide start residue: 443) (UniProt Q86XI2)”: the log2 fold change came to 0.262.
The value for “FAM114A1 (peptide sequence: SLLSSASATVGHGLTAVK, peptide start residue: 136) (UniProt Q8IWE2)” was -0.367.
On to “CHD1L (peptide sequence: AILMKDLDAFENETAK, peptide start residue: 292) (UniProt Q86WJ1)”, for which the log2 fold change was 0.33.
With “KMT2E (peptide sequence: ALLLSDHR, peptide start residue: 1269) (UniProt Q8IZD2)”, the log2 fold change is -0.192.
For “IRF2BP1 (peptide sequence: EEAVAEGAR, peptide start residue: 143) (UniProt Q8IU81)”, the log2 fold change was -0.114.
